The source of these data is paper PMC3667834.

Results are given in words; binding and its absence hold for the method and conditions named. Binding can be weak; no strength is given.

The target in test [1] is OsMPK7 (Oryza sativa (indica rice, cultivar Pusa Basmati 1)) (UniProt Q0PIU5). In words: two-hybrid; Matchmaker system, yeast AH109; MAPKK fused to GAL4 activation domain (pGADT7) as prey, MAPK fused to GAL4 DNA-binding domain (pGBKT7) as bait (the only orientation for OsMKK1; vector swap for the other MAPKKs); growth on SD/-Ade/-His/-Leu/-Trp.
The target of test [2] is OsMPK16-1 (Oryza sativa (indica rice, cultivar Pusa Basmati 1)) (UniProt B3VMS8). The description is as above.
Test [3] concerns the target T1, OsMPK3 (Oryza sativa (indica rice, cultivar Pusa Basmati 1)) (UniProt A2XFC8).
T1 sequence: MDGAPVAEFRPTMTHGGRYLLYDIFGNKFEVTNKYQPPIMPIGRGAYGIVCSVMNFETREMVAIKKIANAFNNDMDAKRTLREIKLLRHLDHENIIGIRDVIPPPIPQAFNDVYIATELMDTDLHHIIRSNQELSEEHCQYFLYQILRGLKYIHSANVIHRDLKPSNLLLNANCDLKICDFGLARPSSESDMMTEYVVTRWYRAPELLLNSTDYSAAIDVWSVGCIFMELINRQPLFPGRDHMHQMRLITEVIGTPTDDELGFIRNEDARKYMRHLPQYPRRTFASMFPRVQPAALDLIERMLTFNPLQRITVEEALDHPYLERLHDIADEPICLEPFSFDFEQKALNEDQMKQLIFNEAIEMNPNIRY
The test is described as above.

In test [4] the target is OsMPK20-3 (Oryza sativa (indica rice, cultivar Pusa Basmati 1)) (UniProt B3GCL2). Described as above.
Test [5] addresses OsMPK20-4 (Oryza sativa (indica rice, cultivar Pusa Basmati 1)) (UniProt Q0PIU4). The description is as above.
Test [6] deals with OsMPK14 (Oryza sativa (indica rice, cultivar Pusa Basmati 1)) (UniProt B3GCK8). The test is described as above.
Test [7] concerns the target T2, OsMKK6 (Oryza sativa (indica rice, cultivar Pusa Basmati 1)) (UniProt Q5QN75).
T2 sequence: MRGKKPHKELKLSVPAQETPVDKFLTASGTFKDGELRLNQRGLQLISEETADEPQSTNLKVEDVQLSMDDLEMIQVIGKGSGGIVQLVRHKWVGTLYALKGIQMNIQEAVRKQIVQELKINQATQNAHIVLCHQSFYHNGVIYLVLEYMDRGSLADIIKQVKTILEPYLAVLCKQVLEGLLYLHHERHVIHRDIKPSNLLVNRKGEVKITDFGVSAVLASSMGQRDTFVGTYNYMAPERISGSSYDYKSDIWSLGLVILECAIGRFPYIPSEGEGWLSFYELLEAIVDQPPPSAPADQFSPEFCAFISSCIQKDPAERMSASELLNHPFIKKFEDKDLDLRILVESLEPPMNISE
In words: two-hybrid; Matchmaker system, yeast AH109; MAPKK fused to GAL4 DNA-binding domain (pGBKT7) as bait, MAPK fused to GAL4 activation domain (pGADT7) as prey; co-transformants selected on SD/-Leu/-Trp, interaction read as growth on SD/-Ade/-His/-Leu/-Trp.

Test [8] addresses OsMKK10-2 (Oryza sativa (indica rice, cultivar Pusa Basmati 1)) (UniProt A7L4W3). The description is as above.
The target in test [9] is OsMKK3 (Oryza sativa (indica rice, cultivar Pusa Basmati 1)) (UniProt A3FK65). The test is described as above.
The target in test [10] is OsMPK4 (Oryza sativa (indica rice, cultivar Pusa Basmati 1)). Nature of the test: two-hybrid; Matchmaker system, yeast AH109; MAPKK fused to GAL4 activation domain (pGADT7) as prey, MAPK fused to GAL4 DNA-binding domain (pGBKT7) as bait (the only orientation for OsMKK1; vector swap for the other MAPKKs); growth on SD/-Ade/-His/-Leu/-Trp.
For test [11], the target named is OsMKK4 (Oryza sativa (indica rice, cultivar Pusa Basmati 1)) (UniProt I3RJI6). Nature of the test: two-hybrid; Matchmaker system, yeast AH109; MAPKK fused to GAL4 DNA-binding domain (pGBKT7) as bait, MAPK fused to GAL4 activation domain (pGADT7) as prey; co-transformants selected on SD/-Leu/-Trp, interaction read as growth on SD/-Ade/-His/-Leu/-Trp.

OsMKK1 (from UniProt A5A544) (enzyme): the binding result in test [1], in [2], in [3], in test [4], in test [5] and in test [6] was “no binding” each time.
In the case of OsMKK3 (from UniProt A3FK65) (enzyme), the binding result in test [1] and in test [6] was “binds” in each case.
For the molecule OsMKK4 (from UniProt I3RJI6) (enzyme), in test [3], the binding result was “binds”.
“OsMKK10-2 (from UniProt A7L4W3) (enzyme)”: the binding result in test [1] is “binds weakly”.
Turning to OsMPK4 (enzyme), in [7], the binding result is reported as “binds”.
Same read-out and setting: the result for OsMPK6 (enzyme) reads “no binding”.
Consider OsMPK7 (from UniProt Q0PIU5) (enzyme), for which the binding entry is on record as “binds weakly” in [8] and “binds” in [9].
As to OsMPK14 (from UniProt B3GCK8) (enzyme), in test [9], the binding entry is “binds”.
For “OsMPK16-1 (from UniProt B3VMS8) (enzyme)”, the binding result in [7] is on record as “binds”.
For OsMPK16-2 (enzyme), the binding entry in [7] is reported as “no binding”.
With OsMPK17-1 (enzyme), the binding entry in test [7] is recorded as “no binding”.
Still for that read-out and setting: the result for OsMPK20-2 (enzyme) reads “no binding”; that for “OsMPK20-3 (from UniProt B3GCL2) (enzyme)”, “binds”.
Regarding “OsMPK20-4 (from UniProt Q0PIU4) (enzyme)”, the binding result in [7] is “binds”.
Same read-out and setting: the result for OsMPK20-5 (enzyme) reads “no binding”.
With OsMPK21-2 (enzyme), in test [7], the binding entry was “no binding”.

B1: OsMKK6 (enzyme, UniProt Q5QN75 1-355)
chain: T2 sequence
On to B1, for which the binding result in test [2], in test [4], in test [5] and in test [10] was “binds” each time.

B2: OsMPK3 (enzyme, UniProt A2XFC8 1-369)
chain: T1 sequence
In the case of B2, the binding entry in test [11] is reported as “binds”.
